This note sets out measurements from patent US20200239590A1 (WASHINGTON UNIVERSITY, published 2020).

Results are given in words; binding and its absence hold for the method and conditions named. Some entries that bind do so weakly or less than the wild type.

The target in assay [1] is T1, recombinant TIP1 protein (tax interacting protein 1) (Homo sapiens (Human)) (UniProt O14907).
T1 sequence: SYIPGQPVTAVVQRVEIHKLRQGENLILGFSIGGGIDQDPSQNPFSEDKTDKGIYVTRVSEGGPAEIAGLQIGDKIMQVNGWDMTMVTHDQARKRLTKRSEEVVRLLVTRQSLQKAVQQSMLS
As to the kind of experiment: indirect ELISA, recombinant TIP1 coated, 2-fold dilutions of hybridoma supernatant. For orientation: ELISA stands for enzyme-linked immunosorbent assay.

Assay [2] deals with T1, recombinant TIP1 protein (tax interacting protein 1) (Homo sapiens (Human)). Description: indirect ELISA, hybridoma supernatant dilutions on coated recombinant TIP1, anti-mouse HRP, TMB.

B1: 2F10 mouse monoclonal anti-TIP1 antibody (antibody, V domains shown)
VH: QVQLQQSGAELARPGASVKLSCKASGYTFTSSGISWVIQKTGQGLEWIGEIYPRSGNTYYNEKFKAKAALTADKSSSTAHMELRSLTSEDSAVYFCARSKTYYSKYGGFFDYWGQGTPLTVSS
VL: DVLMTQTPLSLPVSLGDQASISCRSSQSIVHGNGNTYLEWYLQKPGQSPKLLIHKVSNRFSGVPDRFSGSGSGTDFTLKISRVEAEDLGVYYCFQGSHVPPTFGGGTKLEIK
notes: Mouse monoclonal from hybridoma, tested as supernatant or purified
As to B1, the binding entry in assay [1] and in assay [2] was “binds” each time.

B2: 7H5 mouse monoclonal anti-TIP1 antibody (antibody, V domains shown)
VH: QAQLQQSGAELARPGASVRLSCKASGYILTSSGISWVKQRTGQGLEWIGEIYPRSGNTYYNEKFKGKATLTADKSSSIAYMDLRTLTSEDSAVYFCARSKTFYSKYGGVFDYWGQGTTLTVSS
VL: DVLMTQTPLSLPVSLGDQASISCRSSQNIVHNNGNTYLDWYLQKPGQSPKLLIYKVSNRFSGVPDRFSGSGSGADFTLKISRVEAEDLGVYYCFQGSHVPPTFGGGTKLEIK
notes: Mouse monoclonal from hybridoma
For the molecule B2, the binding result in assay [1] and in assay [2] was “binds” each time.

B3: 3D6 mouse monoclonal anti-TIP1 antibody (antibody, V domains shown)
VH: QVQLHQSGAELARPGAAVKLTCKASGYTLTNSGISWVKQRSGQGLEWIGEIYPGSGNIYYNEKFKVKATLTADKSSSTTYMELRSLTSEDSAVYFCARSRTYYSKYGGLFDYWGQGATLTVSS
VL: DVLMTQTPLSLPVRLGDQASISCRSSQSLLHNNGNTYLEWYLQKPGQSPKLLIYKVSSRFSGVPDRFSGSGSGTDFTLKISRVEAKDLGVYYCFQGSHIPPTFGGGTKLEIK
notes: as for B2
For B3, the binding result in assay [1] and in assay [2] was “binds” throughout.
